# Source: patent US20130123481A1, “MODIFIED NUCLEOSIDES, NUCLEOTIDES, AND NUCLEIC ACIDS, AND USES THEREOF” (MODERNA THERAPEUTICS, priority 2011, published 2013)
# Legend:
# [1] = system: Salmonella tester strains (TA97a, TA98, TA100 and TA1535) and Escherichia coli strain (WP2 uvrA pKM101); assay: Microames Reverse Mutation Screen; details: any tester strain, with or without metabolic activation
# Experimental: The microames screen is a version of the full Ames preincubation assay. It detects both frameshift and base-pair substitution mutations using four Salmonella tester strains (TA97a, TA98, TA100 and TA1535) and one Escherichia coli strain (WP2 uvrA pKM101). Strains TA97a and TA98 detect frameshift mutations, and TA100, TA1535 and WP2 uvrA pKM101 detect base-pair substitution mutations. This scaled-down Ames test uses minimal compound, is conducted with and without metabolic activation (S9 fraction), and uses multiwell plates. This teste is a microbial assay to detect the mutagenic potential of test compounds.
# Positive control compounds were used at 4 different concentrations to ensure the assay system was sensitive to known mutagenic compounds. DMSO was used as the vehicle control.
# [2] = system: peripheral blood mononuclear cells (PBMC), TNF-alpha; assay: In Vitro PBMC Studies: Percent modification - TNF-alpha expression; format: cell-based, human; details: calculated from Tables 7 and 8
# Experimental: (§1) The supernatant was harvested and run by ELISA 22 hours after transfection to determine the protein expression.
# [3] = system: peripheral blood mononuclear cells (PBMC), IFN-alpha; assay: In Vitro PBMC Studies: Percent modification - IFN-alpha expression; format: cell-based, human; details: calculated from Tables 7 and 8
# Experimental: as §1
structure (smiles),measurement,setting,value
Cn1cc([C@@H]2O[C@H](CO)[C@@H](O)[C@H]2O)c(=O)[nH]c1=O [N1-methylpseudouridine],Precipitates,[1],not observed
"C[C@]1(CO)O[C@@H](n2ccc(N)nc2=O)[C@H](O)[C@@H]1O [Compound 25, 4′-C-methyl cytidine]",G-CSF/TNF-alpha (PC ratio),[2],2.8
same,G-CSF/IFN-alpha (PC ratio),[3],0.2
"Cc1cn([C@@H]2O[C@H](CO)[C@@H](O)[C@H]2O)c(=O)nc1N [5-Methylcytidine, reference compound]",Precipitates,[1],not observed
"CN(C)c1nc2c(ncn2[C@@H]2O[C@H](CO)[C@@H](O)[C@H]2O)c(=O)[nH]1 [Compound 50, N,N-dimethyl guanosine]",G-CSF/TNF-alpha (PC ratio),[2],6.8
same,G-CSF/IFN-alpha (PC ratio),[3],0.5
"O=c1[nH]cc([C@@H]2O[C@H](CO)[C@@H](O)[C@H]2O)c(=O)[nH]1 [pseudouridine, Pseudouridine]",Precipitates,[1],not observed
